The assay has as its system Jurkat IL-2 Production. Description: Jurkat IL-2 Production Assay. The note with it: Homo sapiens, Jurkat cell (ATCC), 18-20 h incubation, PHA 5 μg/mL with 1% FBS, or PMA/Ionomycin with 30% FBS (table does not say which). It counts as cell-based. Here is the method:
Jurkat IL-2 Production Assay
Cell: Jurkat cell (ATCC) was grown in RPMI 1640 with 10% FBS and 1% penicillin/streptomycin. The cell density was kept at 1.2-1.8×10^6/mL in culture flask before seeding into culture plate, and the cell density in the plate was 0.5×10^6/[…]/well.
Culture media: RPMI 1640 with 1% FBS or 30% FBS for high serum assay.
Test compound: serial dilution was done in 100% DMSO, and intermediate dilution was done with RPMI 1640 medium with 1% FBS. The DMSO final concentration in culture well was 0.25%.
Stimulant: PHA (Sigma#L9017-10MG) was used for the assay with 1% FBS in culture medium, and added after 10 minutes exposure of cell to compound/DMSO. The PHA final concentration in culture well was 5 μg/mL. PMA (Sigma# P-8139 5MG)/Ionomycin (Sigma# 10634-5MG) was used for the assay with 30% FBS in culture medium, and added at same time point as the 1% FBS culture assay. The final concentration of PMA was 50 ng/mL, and Ionomycin final concentration was 500 ng/mL.
Incubation: at 37° C. with 5% CO2 and 95% humidity for 18 h˜20 h.
IC50: IC50 was calculated with the data analysis software XLfit4, General Pharmacology model 251.

SMILES strings stand for the structures.

For `Cn1nc(-c2cnc(N)nc2)cc1-c1ccc2[nH]c(-c3c(F)cccc3F)cc2c1` [Example 107, 5-{5-[2-(2,6-Difluoro-phenyl)-1H-indol-5-yl]-1-methyl-1H-pyrazol-3-yl}-pyrimidin-2-ylamine], inhibition was half-maximal at 32 nM (IC50).
